42 molecules from PubChem BioAssay AID493014 (National Center for Advancing Translational Sciences (NCATS), 2011) can be followed below.

Structures are written as SMILES. The list shows a part of the results. These are further read-outs of the screen, such as a control signal, another cell line or another target. No call is given for them. Most of these compounds were active or inconclusive in the main read-out, so they are no random draw. Potencies come from curve fits of mixed quality, noted in brackets.

A short description of the experiment: qHTS Assay to Find Inhibitors of Chronic Active B-Cell Receptor Signaling. As to conditions: ABC-DLBCL IkBa-CBG/CBR reporter, luminescence ratio (green luciferase fused to IkBa over red control in TMD8 lymphoma cells), 4 h. The procedure, abridged: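 TMD8 ABC-DLBCL cells carrying doxycycline-inducible green luciferase fused to IkappaBalpha plus unfused red luciferase were exposed to compounds (up to 46 uM) for 4 hrs at 37C. Activity came from the overlap-corrected green/red luminescence ratio.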
(Quantitative high-throughput screening tests each substance at several concentrations.)

[1] abbreviates: measured here: CBR red luminescence, cell number.
[2] abbreviates: measured here: IkBa-CBG green luminescence.

What is called AC50 is the concentration at which the activity in the assay is half-maximal. In the case of `CCC(=O)Nc1ccc(Nc2nc(C)c([N+](=O)[O-])c(Nc3ccc(NC(=O)CC)cc3)n2)cc1`, under setting [1], the AC50 is 18.4 µM [falling, single point].
Take `COc1ccc(-c2onc(C)c2-c2cscn2)c(O)c1`: the AC50 under setting [1] was 20 µM [rising, single point].
Still for that read-out and setting: next, `O=C(COc1ccc(Cl)cc1[N+](=O)[O-])NC1CCCCC1`: 0.501 µM [rising, full curve, poor fit]; `c1ccc2c(-c3cn4ccccc4n3)c[nH]c2c1`: 15.8 µM [falling, single point].
With `CCCc1[nH]nc2c1C(c1ccsc1)C(C#N)=C(N)O2` (configuration not stated), the concentration at half-maximal activity (AC50) under setting [2] is 28.2 µM [falling, single point].
Regarding `CCN(CC(=O)Nc1ccc(NC(C)=O)cc1)C(=O)c1cccc(S(=O)(=O)N2CCCC2)c1`, under setting [1], the concentration at half-maximal activity (AC50) is 3.26 µM [falling, full curve].
On to `COc1ccccc1C(=O)NCC(=O)N1CC=C(c2ccccc2)CC1`, for which the AC50 under setting [1] is 29.1 µM [falling, single point].
In the case of `COC(=O)C1=NN(C(=O)c2ccc(Cl)cc2)C(O)(c2ccccc2)C1` (configuration not stated), the half-maximal activity concentration (AC50) under setting [1] was 14.1 µM [falling, partial curve, poor fit].
Same read-out and setting: next, `COc1cccc(Oc2ccc(C(F)(F)F)cc2N)c1`: 18.4 µM [rising, single point]; `CCOc1cc(C(=O)Nc2cc(C)on2)cc(OCC)c1OCC`: 0.461 µM [rising, partial curve, poor fit]; `CNC(=S)N1N=C(c2ccc(C)cc2)CC1c1ccc(Br)cc1` (configuration not stated): 8.2 µM [rising, partial curve].
The same measure, in the same setting: under `O=C1CCN(Cc2ccc([N+](=O)[O-])cc2)CCN1[C@H](CO)Cc1ccccc1` stands 1.26 µM [falling, partial curve, poor fit].
On the same count and under the same terms, next, `O=C(Cn1cnc2cc([N+](=O)[O-])ccc2c1=O)Nc1ccc2c(c1)CCC2`: 29.1 µM [falling, single point].
`Cc1ccc(-c2csc3nc[nH]c(=S)c23)cc1`: the AC50 under setting [2] was 23.1 µM [falling, single point].
With `O=c1[nH]c(NCCO)nc2ncn(Cc3ccccc3)c12`, the half-maximal activity concentration (AC50) under setting [1] is 4.11 µM [rising, partial curve, poor fit].
On the same count and under the same terms, next, `Cc1cc(=O)oc2cc(OCC(=O)N3CCOCC3)ccc12`: 1.84 µM [rising, partial curve, poor fit]; `O=C(Nc1nnc(C2COc3ccccc3O2)o1)c1ccc(F)cc1` (configuration not stated): 23.1 µM [falling, partial curve]; `COc1ccc(OC)c(/C=N/NC(=O)c2csc3ccccc23)c1`: 10 µM [falling, partial curve, poor fit].
Turning to `CSc1ccc(C(=O)C2CCCN(C(=O)c3nonc3C)C2)cc1` (configuration not stated), the AC50 under setting [1] was 35.5 µM [falling, single point].
The same measure, in the same setting: next, `CC12CCC(CC1=O)C2(C)C` (configuration not stated): 8.2 µM [rising, partial curve, poor fit]; `COc1ccc(C(=O)/C=C2\Sc3ccccc3N2C)cc1`: 22.4 µM [falling, single point].
Same read-out and setting: next, `CCCC(=O)Nc1cccc(NC(=O)c2ccc3c(c2)OCO3)c1`: 0.651 µM [falling, full curve]; `C=COc1ccc(N2C(=O)c3ccccc3OC2C)cc1` (configuration not stated): 11.2 µM [rising, single point]; `COc1ccccc1NC(=O)C(=O)N(c1cccnc1)C(C(=O)NC(C)(C)C)c1ccccc1F` (configuration not stated): 8.91 µM [rising, partial curve].
In the case of `O=C(COC(=O)c1ccccc1C(=O)c1ccccc1)Nc1ccc(SC(F)F)cc1`, under setting [1], the AC50 is 32.6 µM [falling, partial curve, poor fit].
Take `C[C@H](NC(=O)c1cc2c([nH]c3ccccc32)c(-c2ccccc2)n1)C(=O)O`: the AC50 under setting [1] is 8.91 µM [falling, partial curve, poor fit].
Take `OCCC1CN(Cc2ccc3ncccc3c2)CCN1Cc1ccccc1` (configuration not stated): the half-maximal activity concentration (AC50) under setting [1] is 35.5 µM [rising, single point].
For the molecule `O=C(Nc1cccc2nsnc12)c1ccc2c(c1)OCO2`, the AC50 under setting [1] is 3.55 µM [falling, partial curve, poor fit].
Same read-out and setting: next, `c1ccc(CNc2nc(N3CCN(Cc4ccccc4)CC3)nc3ccccc23)cc1`: 17.8 µM [falling, single point].
On the same count and under the same terms, next, `O=C1C2CCCN2C(c2ccccc2)N1c1nccs1` (configuration not stated): 22.4 µM [falling, partial curve, poor fit].
Turning to `Cc1occc1C(=O)Nc1sc2c(c1C(N)=O)CCC(C(C)(C)C)C2` (configuration not stated), the AC50 under setting [1] is 16.4 µM [falling, partial curve].
Consider `O=c1oc2ccccc2c2oc3cc(O)c(O)cc3c12`, for which the AC50 under setting [1] was 0.112 µM [rising, full curve, poor fit].
`COc1cccc2c1OCC/C2=N\NC(=O)COc1ccc(C)cc1`: under setting [1], the AC50 is 9.2 µM [rising, partial curve, poor fit].
Same read-out and setting: next, `O=C(/C=C/c1ccc(Cl)cc1Cl)Nc1cccc(S(=O)(=O)NC2=NCCC2)c1`: 8.91 µM [falling, partial curve, poor fit].
The same measure, in the same setting: under `O=C(O)CSCCCC(=O)Nc1ccc(Br)cc1` stands 22.4 µM [falling, single point].
On the same count and under the same terms, under `N=c1c2c(-c3ccccc3)c(-c3ccccc3)n(Cc3ccco3)c2ncn1CCCO` stands 7.94 µM [falling, partial curve].
For `COC(=O)c1sc(=S)n(-c2cccc(Cl)c2)c1N`, the AC50 under setting [1] was 0.562 µM [rising, full curve, poor fit].
For the molecule `CC/C(=C(\c1ccc(O)cc1)c1ccc(OCCN(C)C)cc1)c1ccccc1`, under setting [1], the AC50 is 35.5 µM [falling, partial curve, poor fit].
Same read-out and setting: under `CC(C)(C)OC(=O)NCCCC[C@H](NC(=O)c1nc[nH]c1C(=O)N1CCN(c2ccccc2)CC1)C(=O)OC(C)(C)C` stands 10 µM [rising, partial curve, poor fit]; under `Cc1ccc(NC(=O)c2ccc3c(c2)OCCO3)cc1C`, 11.2 µM [falling, single point]; under `Cc1cc2nc(-c3ccc(SCC(=O)N4CCOCC4)nc3)[nH]c2cc1C`, 11.6 µM [falling, partial curve, poor fit].
Still for that read-out and setting: under `CCCC(c1nnnn1C(C)(C)CC)N(CCCO)Cc1cc2cc(C)cc(C)c2[nH]c1=O` (configuration not stated) stands 11.6 µM [rising, partial curve, poor fit].
